The values below come from publication PMC7327492.

By UniProt entry, the sequences of proteins in these tests, tags left out.
UniProt P46459: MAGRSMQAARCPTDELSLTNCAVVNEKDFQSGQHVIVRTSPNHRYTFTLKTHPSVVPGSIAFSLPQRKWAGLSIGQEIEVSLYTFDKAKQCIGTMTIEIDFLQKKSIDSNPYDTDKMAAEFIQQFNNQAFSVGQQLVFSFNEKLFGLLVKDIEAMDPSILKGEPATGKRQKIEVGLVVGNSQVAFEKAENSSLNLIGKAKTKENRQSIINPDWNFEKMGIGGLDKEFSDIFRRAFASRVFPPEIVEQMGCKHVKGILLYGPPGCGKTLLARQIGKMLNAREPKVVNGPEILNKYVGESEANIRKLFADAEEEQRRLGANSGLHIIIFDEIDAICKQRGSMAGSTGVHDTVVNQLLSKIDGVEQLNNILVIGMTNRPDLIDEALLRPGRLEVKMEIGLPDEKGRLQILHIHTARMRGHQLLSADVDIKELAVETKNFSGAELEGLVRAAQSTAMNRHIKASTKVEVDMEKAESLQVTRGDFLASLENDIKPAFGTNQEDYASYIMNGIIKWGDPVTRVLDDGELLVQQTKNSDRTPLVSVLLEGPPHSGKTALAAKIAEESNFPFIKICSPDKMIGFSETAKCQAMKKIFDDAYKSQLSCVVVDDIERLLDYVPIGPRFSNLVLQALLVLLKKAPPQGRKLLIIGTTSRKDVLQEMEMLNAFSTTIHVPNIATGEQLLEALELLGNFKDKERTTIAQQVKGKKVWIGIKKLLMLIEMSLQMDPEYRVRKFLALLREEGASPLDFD

The target of this assay is T1, YFP-tagged 4x(LxxIxE) B56 inhibitor.
T1 sequence: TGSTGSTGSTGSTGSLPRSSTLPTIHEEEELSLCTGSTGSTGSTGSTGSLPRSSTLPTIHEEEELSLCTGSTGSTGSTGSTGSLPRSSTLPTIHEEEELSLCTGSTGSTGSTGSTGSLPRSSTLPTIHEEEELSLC
In words: affinity purification with mass spectrometry; YFP-tagged B56 inhibitor affinity-purified from HeLa cells, quantitative label-free MS against the control inhibitor.

Results are given in words; binding and its absence hold for the method and conditions named. In cells and extracts the contact can be indirect. These calls come from enrichment with a bait or labelling near it, and not all partners need be listed. Tags and fused reporters may be left off the sequences shown.

In the case of “NSF (N-ethylmaleimide-sensitive fusion protein) (from UniProt P46459 1-744)”, the binding result was “binds”.
